# The list shows a part of the results. Some tests of the compounds listed are not included; inactive here does not mean inactive elsewhere.
# Test: inhibitors of mutant huntingtin aggregation, primary screen, imaging, exon1htt(103Q)mCFP cells, high-content imaging (AID 483);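 also: compound exposure lasted 3 days before fixation; percent of the per-plate median nuclei count of sample wells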
# Details: exon1htt(103Q)mCFP cell line, aggregate imaging; measured here: cell count, toxicity; at 2 µM
row,Structure (SMILES),nuclei count
1,O=C(OC1CN2CCC1CC2)C(CO)(c1ccccc1)c1ccccc1 (stereo unspecified),111%

# From PubChem BioAssay AID483 (Columbia University Molecular Screening Center, 2006)
